Source: patent publication US20140134634A1
These are yes or no findings as the source states them, for the method shown. In cells and extracts the contact can be indirect. Some results given as binding are weak or reduced against the parent protein; the word gives no strength. For part of these data: Where a sequence is shown, tags or fusion partners need not be part of it. Values belong to the binder of their own block, whether it stands above or below them.

Protein sequences, listed by entry. Tags and fused reporters are not part of them.
UniProt P31652: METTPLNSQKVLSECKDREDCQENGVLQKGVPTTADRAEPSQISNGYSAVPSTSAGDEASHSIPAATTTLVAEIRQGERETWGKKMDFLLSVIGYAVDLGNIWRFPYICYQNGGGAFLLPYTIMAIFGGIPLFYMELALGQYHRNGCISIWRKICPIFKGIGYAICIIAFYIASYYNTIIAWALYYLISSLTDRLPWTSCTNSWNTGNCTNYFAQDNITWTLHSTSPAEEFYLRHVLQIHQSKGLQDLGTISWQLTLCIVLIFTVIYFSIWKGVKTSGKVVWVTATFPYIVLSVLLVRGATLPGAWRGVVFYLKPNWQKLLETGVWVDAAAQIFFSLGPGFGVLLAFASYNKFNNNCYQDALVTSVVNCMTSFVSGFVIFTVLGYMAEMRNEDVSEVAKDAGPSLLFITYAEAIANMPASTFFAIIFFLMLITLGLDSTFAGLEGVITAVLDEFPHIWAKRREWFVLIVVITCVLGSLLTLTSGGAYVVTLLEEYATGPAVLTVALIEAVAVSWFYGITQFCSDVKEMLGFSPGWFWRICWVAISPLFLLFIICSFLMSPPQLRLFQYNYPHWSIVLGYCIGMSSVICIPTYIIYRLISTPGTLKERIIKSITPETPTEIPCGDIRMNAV
UniProt Q60857: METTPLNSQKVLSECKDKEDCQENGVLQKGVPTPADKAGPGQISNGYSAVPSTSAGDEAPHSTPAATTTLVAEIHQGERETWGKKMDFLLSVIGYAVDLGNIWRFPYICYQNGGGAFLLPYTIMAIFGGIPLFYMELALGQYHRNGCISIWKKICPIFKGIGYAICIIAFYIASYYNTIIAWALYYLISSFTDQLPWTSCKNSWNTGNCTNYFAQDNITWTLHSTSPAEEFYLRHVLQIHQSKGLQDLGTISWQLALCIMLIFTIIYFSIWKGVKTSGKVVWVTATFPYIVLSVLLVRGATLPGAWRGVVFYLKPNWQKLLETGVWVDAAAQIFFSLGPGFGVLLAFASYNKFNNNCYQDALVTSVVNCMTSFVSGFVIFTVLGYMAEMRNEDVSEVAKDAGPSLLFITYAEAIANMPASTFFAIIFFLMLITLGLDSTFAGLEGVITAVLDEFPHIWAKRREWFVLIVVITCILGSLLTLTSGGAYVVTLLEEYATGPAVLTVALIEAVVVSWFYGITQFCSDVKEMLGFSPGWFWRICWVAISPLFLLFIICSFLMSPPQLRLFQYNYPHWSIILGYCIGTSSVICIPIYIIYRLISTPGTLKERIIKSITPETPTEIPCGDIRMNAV

How the values were obtained:
[1] = molecular target: serotonin transporter protein (rat, constitutively expressed in Chinese hamster ovary cells) (rat) (UniProt P31652); assay: co-immunoprecipitation with anti-HA, Western blot with anti-SERT (FIG. 7(b))
[2] = molecular target: serotonin transporter protein (rat, constitutively expressed in Chinese hamster ovary cells) (rat) (UniProt P31652); assay: co-immunoprecipitation from homogenate of CHO cells expressing rat SERT and HA-tagged MAGE-D1-NHD, IP with anti-HA, Western blot with anti-SERT
[3] = molecular target: serotonin transporter protein (rat, constitutively expressed in Chinese hamster ovary cells) (rat) (UniProt P31652); assay: co-immunoprecipitation from homogenate of CHO cells expressing rat SERT and HA-tagged MAGE-D1, IP with anti-HA, Western blot with anti-SERT (FIG. 6b)
[4] = molecular target: serotonin transporter protein (rat, constitutively expressed in Chinese hamster ovary cells) (rat) (UniProt P31652); assay: reciprocal co-immunoprecipitation from CHO cell homogenate, Western blot (FIGS. 6(a) and 6(b))
[5] = molecular target: serotonin transporter protein (rat, constitutively expressed in Chinese hamster ovary cells) (rat) (UniProt P31652); assay: co-immunoprecipitation from homogenate of CHO cells expressing rat SERT and HA-tagged MAGE-D1, IP with anti-SERT, Western blot with anti-HA (FIG. 6a)
[6] = molecular target: serotonin transporter protein (rat, constitutively expressed in Chinese hamster ovary cells) (rat) (UniProt P31652); assay: conclusion of the co-immunoprecipitation experiments of Example 2 (CHO cell homogenate)
[7] = molecular target: serotonin transporter protein (endogenous, mouse brain homogenate) (mouse) (UniProt Q60857); assay: co-immunoprecipitation from mouse brain homogenate, Western blot (FIG. 5)
[8] = molecular target: serotonin transporter protein (endogenous, mouse brain homogenate) (mouse) (UniProt Q60857); assay: conclusion of the co-immunoprecipitation experiments of Example 2 (mouse brain homogenate)
[9] = molecular target: serotonin transporter protein (endogenous, mouse brain homogenate) (mouse) (UniProt Q60857); assay: co-immunoprecipitation from mouse brain homogenate with anti-SERT antibody and dynabeads protein A, Western blot with anti-MAGE-D1

binding [1]: binds | binding [2]: binds
B1: HA-tagged MAGE-D1-NHD protein (protein, mouse)
chain: LQERANKLVKYLMLKDYTKVPIKRSEMLRDIIREYTDVYPEIIERACFVLEKKFGIQLKEIDKEEHLYILISTPESLAGILGTTKDTPKLGLLLVILGIIFMNGNRATEAVLWEALRKMGLRPGVRHPLLGDLRKLLTYEFVKQKYLDYRRVPNSNPPEYEFLWGLRSYHETSKMKVLRFIAEVQKRDPRDWTAQFMEAYPYDVPDYA

binding [3]: binds | binding [4]: binds | binding [5]: binds | binding [6]: binds
B2: HA-tagged MAGE-D1 protein (full length, mouse) (protein)
chain: MAQKPDGGAGLRGFQAEASVEDSALLVQTLMEAIQISEAPPTSQATAAASGPNASPQSSQPPTANEKADTEVSAAAARPKTGFKAQNATTKGPNDYSQARNAKEMPKNQSKAAFKSQNGTPKGPHAASDFSQAAPTGKSAKKSEMAFKGQNSTKAGPGTTYNFPQSPSANEMTNNQPKTAKAWNDTTKVPGADAQTQNVNQAKMADVGTSAGISEADGAAAQTSADGSQTQNVESRTIIRGKRTRKVNNLNVEENNSGDQRRASLASGNWRSAPVPVTTQQNPPGAPPNVVWQTPLAWQNPSGWQNQTARQTPPAARQSPPARQTPSAWQNPVAWQNPVIWPNPVIWQNPVIWPNPIVWPGPIVWPNPMAWQSTPGWQSPPSWQAPPSWQSPQDWQGPPDWQVPPDWSMPPDWSFPSDWPFPPDWIPADWPIPPDWQNLRPSPNLRSSSNSRASQNQGPPQPRDVALLQERANKLVKYLMLKDYTKVPIKRSEMLRDIIREYTDVYPEIIERACFVLEKKFGIQLKEIDKEEHLYILISTPESLAGILGTTKDTPKLGLLLVILGIIFMNGNRATEAVLWEALRKMGLRPGVRHPLLGDLRKLLTYEFVKQKYLDYRRVPNSNPPEYEFLWGLRSYHETSKMKVLRFIAEVQKRDPRDWTAQFMEAADEALDALDAAAAEAEARAEARNRMGIGDEAVSGPWSWDDIEFELLTWDEEGDFGDPWSRIPFTFWARYHQNARSRFPQAFTGPIIGPSGTATANFAANFGAIGFFWVEYPYDVPDYA

binding [7]: binds | binding [8]: binds | binding [9]: binds
B3: MAGE-D1 protein (endogenous, mouse brain homogenate) (protein, UniProt Q9QYH6 1-775, looked up)
chain: MAQKPDGGAGLRGFQAEASVEDSALLVQTLMEAIQISEAPPTSQATAAASGPNASPQSSQPPTANEKADTEVSAAAARPKTGFKAQNATTKGPNDYSQARNAKEMPKNQSKAAFKSQNGTPKGPHAASDFSQAAPTGKSAKKSEMAFKGQNSTKAGPGTTYNFPQSPSANEMTNNQPKTAKAWNDTTKVPGADAQTQNVNQAKMADVGTSAGISEADGAAAQTSADGSQTQNVESRTIIRGKRTRKVNNLNVEENNSGDQRRASLASGNWRSAPVPVTTQQNPPGAPPNVVWQTPLAWQNPSGWQNQTARQTPPAARQSPPARQTPSAWQNPVAWQNPVIWPNPVIWQNPVIWPNPIVWPGPIVWPNPMAWQSTPGWQSPPSWQAPPSWQSPQDWQGPPDWQVPPDWSMPPDWSFPSDWPFPPDWIPADWPIPPDWQNLRPSPNLRSSSNSRASQNQGPPQPRDVALLQERANKLVKYLMLKDYTKVPIKRSEMLRDIIREYTDVYPEIIERACFVLEKKFGIQLKEIDKEEHLYILISTPESLAGILGTTKDTPKLGLLLVILGIIFMNGNRATEAVLWEALRKMGLRPGVRHPLLGDLRKLLTYEFVKQKYLDYRRVPNSNPPEYEFLWGLRSYHETSKMKVLRFIAEVQKRDPRDWTAQFMEAADEALDALDAAAAEAEARAEARNRMGIGDEAVSGPWSWDDIEFELLTWDEEGDFGDPWSRIPFTFWARYHQNARSRFPQAFTGPIIGPSGTATANFAANFGAIGFFWVE
